Source: publication PMC8983766
Results are given in words; binding and its absence hold for the method and conditions named. Binding seen in cells or lysates may run through a third protein. Some binding calls cover weakened binding; strength is not graded here. For some assays here: Sequences can lack the tags named with a protein.

Sequences of proteins named here, by UniProt entry; tags and fusion partners are left off.
UniProt O43474: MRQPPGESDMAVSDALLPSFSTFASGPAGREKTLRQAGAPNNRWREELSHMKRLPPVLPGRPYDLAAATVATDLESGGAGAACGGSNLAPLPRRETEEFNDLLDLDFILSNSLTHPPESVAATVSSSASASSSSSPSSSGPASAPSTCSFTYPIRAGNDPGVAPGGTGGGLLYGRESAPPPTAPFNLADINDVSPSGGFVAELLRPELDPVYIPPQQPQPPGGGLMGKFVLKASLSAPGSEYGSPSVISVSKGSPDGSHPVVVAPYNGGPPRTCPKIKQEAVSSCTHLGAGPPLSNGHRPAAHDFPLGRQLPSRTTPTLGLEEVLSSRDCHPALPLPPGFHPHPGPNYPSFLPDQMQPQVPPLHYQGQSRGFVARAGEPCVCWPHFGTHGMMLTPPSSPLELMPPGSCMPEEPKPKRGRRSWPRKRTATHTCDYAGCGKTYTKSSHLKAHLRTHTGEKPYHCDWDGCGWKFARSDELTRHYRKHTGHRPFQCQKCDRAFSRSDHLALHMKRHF

What was measured:
[1] = target: T1, FLAG-tagged deubiquitinating enzyme 3 (DUB3) (UniProt Q6R6M4); test: co-IP; HEK293T cells transfected with FLAG-DUB3; lysates incubated with anti-FLAG-agarose; Western blot for KLF4; RIPA buffer, 4 °C for 4 h
T1 sequence: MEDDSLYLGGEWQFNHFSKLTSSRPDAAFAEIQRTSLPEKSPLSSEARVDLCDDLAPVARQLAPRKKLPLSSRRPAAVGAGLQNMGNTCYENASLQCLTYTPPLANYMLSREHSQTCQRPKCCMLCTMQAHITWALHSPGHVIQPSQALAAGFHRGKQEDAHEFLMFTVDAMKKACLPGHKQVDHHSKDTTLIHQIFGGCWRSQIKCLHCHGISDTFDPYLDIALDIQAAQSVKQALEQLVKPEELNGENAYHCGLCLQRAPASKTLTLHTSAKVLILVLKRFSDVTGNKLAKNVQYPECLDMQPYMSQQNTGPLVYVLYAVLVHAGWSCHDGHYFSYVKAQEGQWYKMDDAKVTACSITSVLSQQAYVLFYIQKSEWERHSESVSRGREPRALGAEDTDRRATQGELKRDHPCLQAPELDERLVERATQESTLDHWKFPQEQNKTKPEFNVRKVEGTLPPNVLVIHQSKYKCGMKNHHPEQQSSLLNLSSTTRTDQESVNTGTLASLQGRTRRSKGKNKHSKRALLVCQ

[2] = target: Krüppel-like factor 4 (KLF4), endogenous in Hep3B cells (human (endogenous in Hep3B)) (UniProt O43474); test: co-IP; Hep3B cell lysates immunoprecipitated with control IgG, anti-KLF4 or anti-DUB3; Western blot for DUB3 and KLF4; endogenous proteins; RIPA buffer, protein A/G-agarose, 4 °C for 4 h

Krüppel-like factor 4 (KLF4), endogenous in HEK293T cells (from UniProt O43474 1-513)
binding [1]: binds

B1: deubiquitinating enzyme 3 (DUB3), endogenous in Hep3B cells (enzyme, UniProt Q6R6M4 1-530)
chain: MEDDSLYLGGEWQFNHFSKLTSSRPDAAFAEIQRTSLPEKSPLSSEARVDLCDDLAPVARQLAPRKKLPLSSRRPAAVGAGLQNMGNTCYENASLQCLTYTPPLANYMLSREHSQTCQRPKCCMLCTMQAHITWALHSPGHVIQPSQALAAGFHRGKQEDAHEFLMFTVDAMKKACLPGHKQVDHHSKDTTLIHQIFGGCWRSQIKCLHCHGISDTFDPYLDIALDIQAAQSVKQALEQLVKPEELNGENAYHCGLCLQRAPASKTLTLHTSAKVLILVLKRFSDVTGNKLAKNVQYPECLDMQPYMSQQNTGPLVYVLYAVLVHAGWSCHDGHYFSYVKAQEGQWYKMDDAKVTACSITSVLSQQAYVLFYIQKSEWERHSESVSRGREPRALGAEDTDRRATQGELKRDHPCLQAPELDERLVERATQESTLDHWKFPQEQNKTKPEFNVRKVEGTLPPNVLVIHQSKYKCGMKNHHPEQQSSLLNLSSTTRTDQESVNTGTLASLQGRTRRSKGKNKHSKRALLVCQ
binding [2]: binds
